Test results published in article doi:10.1101/2020.11.15.383513.
These are yes or no findings as the source states them, for the method shown. Binding seen in cells or lysates may run through a third protein. Some entries that bind do so weakly or less than the wild type.

Amino acid sequences for entries named in this document (tags omitted).
UniProt P29469: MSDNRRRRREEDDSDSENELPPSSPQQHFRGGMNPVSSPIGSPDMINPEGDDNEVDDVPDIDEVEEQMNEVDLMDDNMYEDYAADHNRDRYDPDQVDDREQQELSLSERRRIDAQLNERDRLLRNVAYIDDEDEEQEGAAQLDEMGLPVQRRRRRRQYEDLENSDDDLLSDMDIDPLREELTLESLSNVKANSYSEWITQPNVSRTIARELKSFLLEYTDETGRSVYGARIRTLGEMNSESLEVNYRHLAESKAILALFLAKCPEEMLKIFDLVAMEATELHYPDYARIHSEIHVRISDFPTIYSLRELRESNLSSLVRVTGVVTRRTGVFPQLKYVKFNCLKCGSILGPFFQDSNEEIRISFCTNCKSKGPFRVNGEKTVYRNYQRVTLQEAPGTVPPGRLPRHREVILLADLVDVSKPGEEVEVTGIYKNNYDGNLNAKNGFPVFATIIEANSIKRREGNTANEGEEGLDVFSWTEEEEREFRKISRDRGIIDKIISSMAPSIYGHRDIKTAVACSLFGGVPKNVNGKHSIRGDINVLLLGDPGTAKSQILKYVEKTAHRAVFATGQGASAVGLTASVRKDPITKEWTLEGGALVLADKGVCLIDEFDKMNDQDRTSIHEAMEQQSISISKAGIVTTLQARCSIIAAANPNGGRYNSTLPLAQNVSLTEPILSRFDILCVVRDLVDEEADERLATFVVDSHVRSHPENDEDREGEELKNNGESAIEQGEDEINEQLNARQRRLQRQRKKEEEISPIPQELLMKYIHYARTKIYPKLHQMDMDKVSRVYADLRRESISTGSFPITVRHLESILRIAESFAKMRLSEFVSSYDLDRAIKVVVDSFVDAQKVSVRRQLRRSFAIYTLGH

B1: Apn1 (enzyme, UniProt P22936 1-367)
chain: MPSTPSFVRSAVSKYKFGAHMSGAGGISNSVTNAFNTGCNSFAMFLKSPRKWVSPQYTQEEIDKFKKNCATYNYNPLTDVLPHGQYFINLANPDREKAEKSYESFMDDLNRCEQLGIGLYNLHPGSTLKGDHQLQLKQLASYLNKAIKETKFVKIVLENMAGTGNLVGSSLVDLKEVIGMIEDKSRIGVCIDTCHTFAAGYDISTTETFNNFWKEFNDVIGFKYLSAVHLNDSKAPLGANRDLHERLGQGYLGIDVFRMIAHSEYLQGIPIVLETPYENDEGYGNEIKLMEWLESKSESELLEDKEYKEKNDTLQKLGAKSRKEQLDKFEVKQKKRAGGTKRKKATAEPSDNDILSQMTKKRKTKKE

Target: actin (yeast, from total yeast cell extract) (S. cerevisiae (endogenous in yeast cell extract)) (UniProt P60010)
Experiment: pull-down

Molecule | binding
Mcm2 (from UniProt P29469 1-868) | no binding
B1 | binds
